Reference: publication PMC5183592
No constants are given. Whether binding was seen depends on the method and setting. In cells and extracts the contact can be indirect. Some entries that bind do so weakly or less than the wild type.

The chains behind the UniProt entries cited, without tags or fusion partners. Residues count along the entry.
UniProt Q9Z0W1, residues 32-427: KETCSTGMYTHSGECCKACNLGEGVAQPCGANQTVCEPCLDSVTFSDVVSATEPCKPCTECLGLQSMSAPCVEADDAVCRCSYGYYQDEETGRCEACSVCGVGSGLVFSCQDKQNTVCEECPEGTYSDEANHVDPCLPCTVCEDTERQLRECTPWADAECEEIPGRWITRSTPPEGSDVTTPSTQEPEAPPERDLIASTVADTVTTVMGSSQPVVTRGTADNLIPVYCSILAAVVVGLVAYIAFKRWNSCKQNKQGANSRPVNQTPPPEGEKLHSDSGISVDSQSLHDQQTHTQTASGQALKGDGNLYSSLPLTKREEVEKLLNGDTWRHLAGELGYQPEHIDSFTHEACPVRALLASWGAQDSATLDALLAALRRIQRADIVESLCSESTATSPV
UniProt P07174, residues 30-425: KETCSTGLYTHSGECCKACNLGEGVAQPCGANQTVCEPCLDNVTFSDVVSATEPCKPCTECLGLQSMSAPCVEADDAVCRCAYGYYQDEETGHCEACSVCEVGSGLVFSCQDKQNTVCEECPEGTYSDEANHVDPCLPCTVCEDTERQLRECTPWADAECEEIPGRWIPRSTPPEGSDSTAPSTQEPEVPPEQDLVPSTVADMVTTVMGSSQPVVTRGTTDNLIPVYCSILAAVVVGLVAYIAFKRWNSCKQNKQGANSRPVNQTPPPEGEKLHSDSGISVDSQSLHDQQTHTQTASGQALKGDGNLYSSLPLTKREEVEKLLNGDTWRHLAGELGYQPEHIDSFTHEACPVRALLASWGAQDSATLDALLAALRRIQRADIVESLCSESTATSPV
UniProt P58801: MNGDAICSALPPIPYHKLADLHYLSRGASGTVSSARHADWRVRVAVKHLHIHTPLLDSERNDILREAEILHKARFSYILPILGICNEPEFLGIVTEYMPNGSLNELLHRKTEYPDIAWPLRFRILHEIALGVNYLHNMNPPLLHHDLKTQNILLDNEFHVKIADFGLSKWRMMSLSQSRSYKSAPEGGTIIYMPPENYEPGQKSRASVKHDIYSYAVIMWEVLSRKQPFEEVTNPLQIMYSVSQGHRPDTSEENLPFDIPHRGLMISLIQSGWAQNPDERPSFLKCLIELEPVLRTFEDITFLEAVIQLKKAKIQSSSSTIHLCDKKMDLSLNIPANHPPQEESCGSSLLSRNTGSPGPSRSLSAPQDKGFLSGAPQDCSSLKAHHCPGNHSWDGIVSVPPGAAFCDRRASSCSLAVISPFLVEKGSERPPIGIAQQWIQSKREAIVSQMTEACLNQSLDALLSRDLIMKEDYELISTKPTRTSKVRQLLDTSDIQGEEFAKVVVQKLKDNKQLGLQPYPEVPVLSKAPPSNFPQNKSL

Experiments:
[1] = molecular target: p75 neurotrophin receptor (p75^NTR), endogenous in mouse cerebellar granule neurons (mouse (endogenous in CGNs)) (UniProt Q9Z0W1); experiment: co-IP; primary cerebellar granule neurons from p75^NTR wt mice, all proteins endogenous; 20 min (RIP2) or 30 min (RhoGDI) with BNN27, DHEA or NGF; IP of p75^NTR, blot for RIP2 or RhoGDI
[2] = molecular target: p75 neurotrophin receptor (p75^NTR), wild type, transfected (UniProt P07174); experiment: co-IP; MEF cells transfected with p75^NTR, endogenous RhoGDI and RIP2; untreated or 30 min BNN27 (1-100 nM), DHEA (100 nM), NGF (100 ng/ml) or E2 (100 nM) in serum-free medium; lysis in 1% Nonidet P-40, 20 mM Tris pH 7.4, 137 mM NaCl; IP with anti-p75^NTR overnight at 4°C, protein A-Sepharose; blot for RhoGDI or RIP2

binding [1]: binds
binding [2]: binds
Substance: receptor-interacting protein 2 (RIP2), endogenous (from UniProt P58801 1-539)
